Experiment in all cases: split reporter; split YFP in rice protoplasts, 5 ug of each plasmid, 24-36 hr after transfection, fluorescence graded +++ to –; the YFPN fusion is written as binder, the YFPC fusion as target
Test [1] deals with rLG2 (split YFP fusion) (rice (Nipponbare)).
Test [2] addresses TGAL9 (split YFP fusion) (rice (Nipponbare)).
The target in test [3] is TGAL6 (split YFP fusion) (rice (Nipponbare)).
Test [4] deals with TGAL7 (split YFP fusion) (rice (Nipponbare)).
For test [5], the target named is rTGA2.1 (split YFP fusion) (rice (Nipponbare)).
Test [6] deals with TGAL5 (split YFP fusion) (rice (Nipponbare)).
The target in test [7] is NRR (split YFP fusion) (rice (Nipponbare)).
The target in test [8] is TGAL4 (split YFP fusion) (rice (Nipponbare)).
For test [9], the target named is TGAL11 (split YFP fusion) (rice (Nipponbare)).
Test [10] concerns the target rTGA2.2 (split YFP fusion) (rice (Nipponbare)).
The target in test [11] is TGAL2 (split YFP fusion) (rice (Nipponbare)).
Test [12] addresses TGAL1 (split YFP fusion) (rice (Nipponbare)).
Test [13] has as its target RH2 (split YFP fusion) (rice (Nipponbare)).
Test [14] concerns the target rTGA2.3 (split YFP fusion) (rice (Nipponbare)).

These are yes or no findings as the source states them, for the method shown. Binding seen in cells or lysates may run through a third protein. For some assays here: Binding can be weak; no strength is given. Where a sequence is shown, tags or fusion partners need not be part of it.

B1: NH2 (split YFP fusion) (protein, UniProt Q0JJ01 1-635)
chain: MPARSAVVVIAMEPSSSITIASSSSYLSNGSSPCSVSLAPPGAGAVAAQAAPVAAGEGGGGGGGGGGGGSSSVEVVSLNRLSANLERLLLDSDLDCSDADVDVADGGPPVPVHRCILAARSTFFYNLFAARGRGGDGAAGGGGGGGGGGGERTGGRPRYKMEELVPGGRVGRDAFLSLLGYLYTGKLRPAPDDVVSCADPMCPHDSCPPAIRFNVEQMYAAWAFKITELISLFQRRLLNFVDKTLVEDVLPILQVAFHSELTPVLEKCIRRIARSNLDNVSLDKELPPEVAVQIKEIRQKSQPNEGDTVISDPVHEKRVRRIHRALDSDDVELVKLLLNESEITLDDANALHYAAAYCDSKVVSELLDLRLANLNLKNSRGYTALHLAAMRREPAIIMCLLNKGAAVSQLTADGQSAMSICRRLTRMKDYNTKMEQGQESNKDRLCIDILDREMIRKPMAVEDSVTSPLLADDLHMKLLYLENRVAFARLFFPAEAKVAMQIAQADTTPEFGIVPAASTSGKLKEVDLNETPVTQNKRLRSRVDALMKTVELGRRYFPNCSQVLDKFLEDDLPDSPDALDLQNGTSDEQNVKRMRFCELKEDVRKAFSKDRADNSMFSILSSSSSSSPPPKVAKK
As to B1, the binding result in test [1] is “no binding”; in [2] it was “no binding”; in test [3], “no binding”; in test [4], “binds weakly”; in test [5], “no binding”; in test [6], “no binding”. The binding entry in [7] is given as “binds weakly”; in test [8] it was “no binding”; in [9] it was “binds”; in [10], “binds weakly”; in test [11], “binds”; in [12], “binds”. The binding entry in test [13] and in [14] was “binds weakly” in each case.

The record behind these values is PMC4094623.
